Patent publication US11591294B2, “Fluorenone/fluorenol derivatives for aqueous redox flow batteries” (Battelle Memorial Institute, priority 2019, dated 2023)

Columns and labels:
[1] = Cyclic voltammetry in aqueous 1 M NaOH; format: physicochemical; settings: glassy carbon
Procedure: Electrochemical tests: CV measurements in aqueous phase were performed using a three-electrode configuration consisting of a glassy carbon working electrode (3 mm diameter), a glassy carbon counter electrode and an Ag/AgCl reference electrode. The electrolytes of 10 mM redox-active materials in 1.0 M NaOH were used. CV data were collected using a CHI760D potentiostat (CH Instruments) at a scan rate of 100 mV s^−1 (Hollas et al., Nature Energy 2018, 3:508-514). CV measurements in nonaqueous phase were performed using a three-electrode configuration consisting of a glassy carbon working electrode (3 mm diameter), a glassy carbon counter electrode and an Ag/AgNO3 (10 mM in Acetonitrile) as reference electrode or Ag wire as pseudo reference electrode (Inzelt et al., Handbook of Reference Electrodes, 2013, Springer). Tests were carried out in an argon-filled Mbraun glove box (Stratham, N.H., USA).
In view of the DFT calculation, it was theorized that functionalization of the FL ring structures with electron withdrawing groups such as —F, -sulfonamide, and —SO3−, among others, would shift the equilibrium constant to increase the concentration of deprotonated FL-OH anion/dianion relative to FL-OH, thereby improving the two-electron redox-reversibility of FLs. […] As expected, the CV curves with two pairs of peaks become clear and sharp with adding stronger electron withdrawing groups. The results of pH testing using DSFL as a model molecule also supported the radical anion intermediate stability was highly dependent on aqueous media pH level (FIG. 12). Reversibility was seen only at high pH, which confirmed the hypothesis of deprotonation enabling reversible oxidation.

[2] = Flow cell tests (aqueous redox flow battery, ferro/ferricyanide catholyte); settings: for discharge capacity: 0.5 M anolyte
[3] = Interdigitated flow cell test of 14N2CN3OHFL; settings: 0.1 M
[4] = 1 M anolyte, 20 mA/cm^2, more than 200 cycles
[5] = 1 M anolyte, 50° C. in air, 100 mA cm^−2

In the case of `O=C(O)c1cccc2c1C(=O)c1cc(S(=O)(=O)[O-])ccc1-2.[K+]` [Compound 1C7SFL], the “redox behaviour by cyclic voltammetry (in words)” value (from here on “redox behaviour”) [1] is reported as “irreversible reduction”.
For `O=C(O)c1cccc2c1-c1ccc(S(=O)(=O)O)cc1C2=O` [Compound 4C7SFL, 9-Oxo-7-sulfo-9H-fluorene-4-carboxylic acid], the discharge capacity ([2]; 20 mA cm^−2) was 30%, the discharge capacity ([2]; 40 mA cm^−2) was “less than 10%” and the anolyte volumetric capacity ([2]; 1 M anolyte, 20 mA/cm^2) was 39.3 Ah/L. The stable discharge voltage ([2]; 1 M anolyte, 20 mA/cm^2, hundreds of cycles) was “over 1 V”, the “Coulombic efficiency (CE)” value [2, 4] was roughly 100% and the “energy efficiency (EE)” value [2, 4] was roughly 80%. The EE [2, 5] was 70.6%, the VE [2, 5] was 70.8% and the “average CE” value ([2]; 1 M anolyte, 50° C. in air, 100 mA cm^−2, more than 700 cycles) was 99.8%. The “capacity retention per cycle” value ([2]; 1 M anolyte, 16 days of cycling, 100 mA cm^−2, 50° C.) was 99.98 % per cycle, the capacity retention ([2]; 1 M anolyte, over 780 cycles, 100 mA cm^−2, 50° C.) was 88% and the EE ([2]; 1.36 M anolyte, 20 mA cm^−2) was 92%. For the same molecule, the VE ([2]; 1.36 M anolyte, 20 mA cm^−2) was 93%, the “material utilization percentage (two-electron basis)” value ([2]; 1.36 M anolyte, 20 mA cm^−2) was 72% and the “capacity fade per cycle” value ([2]; 1.36 M anolyte, 20 mA/cm^2) was 0.000024 %/cycle. For the same molecule, the “voltage at 50% of discharge capacity point” value ([2]; 1.36 M anolyte, 20 mA/cm^2) was roughly 1.10 V, the “capacity fade per day” value ([2]; 1.36 M anolyte, 20 mA/cm^2, 120 days) was 0.00022 %/day and the “reversible capacity delivered over 1 V during discharge” value ([2]; 1.36 M anolyte, 20 mA/cm^2, 120 days (1111 cycles)) was greater than 96%. For the same molecule, the EE ([2]; 1.36 M anolyte, 60 mA cm^−2) was 78%, the VE ([2]; 1.36 M anolyte, 60 mA cm^−2) was 79% and the “material utilization percentage (two-electron basis)” value ([2]; 1.36 M anolyte, 60 mA cm^−2) was 38%. For the same molecule, the discharge voltage ([2]; 1.36 M anolyte, current densities 20-60 mA/cm^2) was greater than 1 V, the capacity fade ([2]; 1.36 M anolyte, cycle 17 to cycle 1111, 20 mA/cm^2) was roughly 0.026% and the “average Coulombic efficiency (CE)” value ([2]; 1.36 M anolyte, extended cycling) was roughly 100%. The “overall energy efficiency (EE)” value ([2]; 1.36 M anolyte, majority of the cycles) was “approximately 90%”, the capacity retention ([2]; 1.4 M anolyte in 1 M NaOH, over 120 days of operation) was 97.38% and the “redox behaviour” value [1] was “two separate one-electron reduction peaks and only one re-oxidation peak”.
For `N#Cc1nc2c(nc1O)-c1ccccc1C2=O` [Compound 14N2CN3OHFL, 3-hydroxy-9-oxo-9H-indeno[1,2-b]pyrazine-2-carbonitrile], the Columbic efficiency ([3]; 20 mAcm^−2) was roughly 100%, the energy efficiency ([3]; 20 mAcm^−2) was “above 80%” and the voltage efficiency ([3]; 20 mAcm^−2) was “above 80%”. The utilization ([3]; 20 mAcm^−2, over 250 cycles) was roughly 30%.
With `O=C1c2cc(Br)cc(S(=O)(=O)[O-])c2-c2c1cc(Br)cc2S(=O)(=O)[O-].[K+].[K+]` [Compound 27Br4SFL] the “redox behaviour” value [1] was “some enhancement of hydrogenated alcohol re-oxidation”.
`O=C(O)c1cc(S(=O)(=O)O)cc2c1-c1ccc(S(=O)(=O)O)cc1C2=O` [Compound 27S4CFL, 9-oxo-2,7-sulfo-9H-fluorene-4-carboxylic acid] gave a discharge capacity ([2]; 20 mA cm^−2) of 80% and a discharge capacity ([2]; 40 mA cm^−2) of roughly 70%.
For `O=C1c2cc(O)ccc2-c2ccc(O)cc21` [DHFL, 9-oxo-2,7-dihydroxy-9H-fluorene], the “redox behaviour” value [1] was “irreversible reaction”.
For `O=C1c2cc(S(=O)(=O)[O-])ccc2-c2ccc(S(=O)(=O)[O-])cc21.[K+].[K+]` [DSFL, Potassium 9-oxo-9H-fluorene-2,7-disulfonate], the “redox behaviour” value [1] was “two separate one-electron reduction peaks and only one re-oxidation peak”.
